Laboratory results from PMC5604497.
These are yes or no findings as the source states them, for the method shown. For some of these results: Binding seen in cells or lysates may run through a third protein. Some entries that bind do so weakly or less than the wild type. Sequences can lack the tags named with a protein.

T1: CpxA-Strep (plasmid-encoded C-terminal fusion of CpxA with Strep-tag) (E. coli (strain MG1655)) (UniProt P0AE82)
T1 sequence: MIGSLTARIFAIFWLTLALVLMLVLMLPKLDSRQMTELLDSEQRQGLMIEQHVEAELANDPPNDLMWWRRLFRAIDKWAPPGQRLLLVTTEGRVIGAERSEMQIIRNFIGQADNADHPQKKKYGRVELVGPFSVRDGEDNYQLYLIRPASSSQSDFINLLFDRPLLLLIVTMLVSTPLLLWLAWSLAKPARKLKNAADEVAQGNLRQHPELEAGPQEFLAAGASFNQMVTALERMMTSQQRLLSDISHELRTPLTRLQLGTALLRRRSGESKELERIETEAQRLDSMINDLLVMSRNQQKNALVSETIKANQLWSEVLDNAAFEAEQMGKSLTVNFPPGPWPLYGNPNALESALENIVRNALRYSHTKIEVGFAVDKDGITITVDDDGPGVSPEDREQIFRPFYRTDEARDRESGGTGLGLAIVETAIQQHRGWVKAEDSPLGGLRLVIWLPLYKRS

T2: ArcB-T18 (sensor kinase ArcB C-terminally fused to the T18 fragment of Bordetella pertussis adenylate cyclase) (E. coli (strain MG1655)) (UniProt P0AEC3)
T2 sequence: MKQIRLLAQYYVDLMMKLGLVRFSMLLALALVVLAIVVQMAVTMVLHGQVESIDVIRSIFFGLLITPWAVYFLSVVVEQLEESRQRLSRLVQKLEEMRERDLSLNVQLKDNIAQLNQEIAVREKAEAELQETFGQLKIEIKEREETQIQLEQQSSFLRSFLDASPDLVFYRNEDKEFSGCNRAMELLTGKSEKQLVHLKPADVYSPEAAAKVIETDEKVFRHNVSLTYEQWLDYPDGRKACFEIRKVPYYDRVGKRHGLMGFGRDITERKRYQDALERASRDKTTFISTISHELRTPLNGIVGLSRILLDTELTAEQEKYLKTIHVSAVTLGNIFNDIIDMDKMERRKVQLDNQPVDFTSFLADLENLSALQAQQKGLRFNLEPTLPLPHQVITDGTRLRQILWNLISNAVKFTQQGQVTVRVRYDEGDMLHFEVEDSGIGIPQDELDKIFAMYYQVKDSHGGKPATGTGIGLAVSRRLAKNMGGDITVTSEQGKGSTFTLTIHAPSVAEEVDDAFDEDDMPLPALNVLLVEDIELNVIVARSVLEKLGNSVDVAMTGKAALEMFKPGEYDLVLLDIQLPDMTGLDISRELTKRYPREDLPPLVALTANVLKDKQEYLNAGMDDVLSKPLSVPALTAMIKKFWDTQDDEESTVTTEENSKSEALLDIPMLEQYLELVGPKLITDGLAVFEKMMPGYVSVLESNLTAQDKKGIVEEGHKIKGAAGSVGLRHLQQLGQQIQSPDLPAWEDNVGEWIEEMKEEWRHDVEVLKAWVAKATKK


Key:
[1] = molecular target: T1, CpxA-Strep (plasmid-encoded C-terminal fusion of CpxA with Strep-tag) (E. coli (strain MG1655)); assay: cross-linking + pull-down; Membrane-SPINE: cells treated with 5 μg ml^−1 gentamicin for 40 min and 0.6% formaldehyde for the last 20 min; membranes solubilised with 2% DDM; CpxA-Strep purified on Strep-tactin column; cross-links removed by boiling; immunoblot for Strep and Snap tags
[2] = molecular target: T1, CpxA-Strep (plasmid-encoded C-terminal fusion of CpxA with Strep-tag) (E. coli (strain MG1655)); assay: cross-linking + pull-down; Membrane-SPINE as a2 but cells not treated with gentamicin; 0.6% formaldehyde added
[3] = molecular target: T1, CpxA-Strep (plasmid-encoded C-terminal fusion of CpxA with Strep-tag) (E. coli (strain MG1655)); assay: pull-down; Membrane-SPINE as a2 with 5 μg ml^−1 gentamicin but without the cross-linker formaldehyde; CpxA-Strep purified on Strep-tactin column; immunoblot
[4] = molecular target: T2, ArcB-T18 (sensor kinase ArcB C-terminally fused to the T18 fragment of Bordetella pertussis adenylate cyclase) (E. coli (strain MG1655)); assay: two-hybrid; bacterial two-hybrid (BACTH), T18 and T25 fusions co-overexpressed in adenylate-cyclase-deficient E. coli BTH-101, LB pH 7, aerobic, OD600 ~0.6; ß-galactosidase activity (ONPG) in Miller units, three biological replicates; background with empty vectors about 400 MU

binding [1] | binding [2] | binding [3] | binding [4] | Binder
binds | binds weakly | binds weakly |  | ArcA-Snap (chromosomally-encoded fusion protein of ArcA with a Snap-Tag) (protein, UniProt P0A9Q1 1-238) MQTPHILIVEDELVTRNTLKSIFEAEGYDVFEATDGAEMHQILSEYDINLVIMDINLPGKNGLLLARELREQANVALMFLTGRDNEVDKILGLEIGADDYITKPFNPRELTIRARNLLSRTMNLGTVSEERRSVESYKFNGWELDINSRSLIGPDGEQYKLPRSEFRAMLHFCENPGKIQSRAELLKKMTGRELKPHDRTVDVTIRRIRKHFESTPDTPEIIATIHGEGYRFCGDLED
 |  |  | no binding | T25-CpxR (response regulator CpxR N-terminally fused to the T25 fragment of Bordetella pertussis adenylate cyclase) (protein, UniProt P0AE88 1-232) MNKILLVDDDRELTSLLKELLEMEGFNVIVAHDGEQALDLLDDSIDLLLLDVMMPKKNGIDTLKALRQTHQTPVIMLTARGSELDRVLGLELGADDYLPKPFNDRELVARIRAILRRSHWSEQQQNNDNGSPTLEVDALVLNPGRQEASFDGQTLELTGTEFTLLYLLAQHLGQVVSREHLSQEVLGKRLTPFDRAIDMHISNLRRKLPDRKDGHPWFKTLRGRGYLMVSAS
